PubChem BioAssay AID1508588 | Peter MacCallum Cancer Centre | 2020

Screen: 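Which gene losses make BRAF-mutant melanoma cells more responsive to vemurafenib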 (primary screen)
Cell system: human WM266.4 melanoma cells (BRAF V600 mutant)
Reagent: siRNA pool against human genes, 40 nM
Timing: 96 h from transfection to read-out
Conditions: vemurafenib 300 nM (about IC25), added 48 h after transfection, for 48 h; comparison arm got DMSO vehicle only
Detection: 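Cell gain (DAPI nuclei at end minus before drug, mean of two replicates) and medium lactate by absorbance per cell, both as ratio to non-targeting siRNA, also grouped into fold-change classes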
Direction: cell gain with vemurafenib: higher = more cell gain than with non-targeting siRNA; lactate per cell with vemurafenib: higher = more lactate made per cell
Active means: 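a knock-down counts as enhancing when its fold-change classes with vehicle and with vemurafenib, taken together, show a stronger drug effect on cell gain or lactate per cell; exact class pairs not stated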
Calls: active = enhances vemurafenib effect; inactive = no enhancement seen
Shown is a random part of about 18,000 deposited reagents. Of all reagents, 790 (4.4%) were called active. 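Calls rest on a combination of fold-change classes in drug and vehicle arms, not all shown here.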

OR6F1 — cell gain with vemurafenib: 0.47; lactate per cell with vemurafenib: 1.45; Outcome: inactive
PPIF — cell gain with vemurafenib: 0.92; lactate per cell with vemurafenib: 0.78; Outcome: inactive
RCC2 — cell gain with vemurafenib: 1.02; lactate per cell with vemurafenib: 0.46; Outcome: inactive
GABRG3 — cell gain with vemurafenib: 0.22; lactate per cell with vemurafenib: 2.63; Outcome: inactive
HYLS1 — cell gain with vemurafenib: 0.41; lactate per cell with vemurafenib: 0.82; Outcome: inactive
AGPAT1 — cell gain with vemurafenib: 0.81; lactate per cell with vemurafenib: 0.78; Outcome: inactive
ABCG8 — cell gain with vemurafenib: 1.07; lactate per cell with vemurafenib: 0.51; Outcome: inactive
TNP1 — cell gain with vemurafenib: 0.31; lactate per cell with vemurafenib: 1.66; Outcome: inactive
SASH3 — cell gain with vemurafenib: 0.17; lactate per cell with vemurafenib: 0.87; Outcome: inactive
SPTLC2 — cell gain with vemurafenib: 0.58; lactate per cell with vemurafenib: 0.98; Outcome: inactive
MAPKAP1 — cell gain with vemurafenib: 0.34; lactate per cell with vemurafenib: 0.68; Outcome: inactive
EFEMP1 — cell gain with vemurafenib: 1.16; lactate per cell with vemurafenib: 0.72; Outcome: inactive
WDR4 — cell gain with vemurafenib: 0.52; lactate per cell with vemurafenib: 2.21; Outcome: inactive
KRT3 — cell gain with vemurafenib: 0.49; lactate per cell with vemurafenib: 0.95; Outcome: inactive
SRGAP2 — cell gain with vemurafenib: 0.83; lactate per cell with vemurafenib: 0.99; Outcome: inactive
SERINC3 — cell gain with vemurafenib: 0.98; lactate per cell with vemurafenib: 0.47; Outcome: inactive
